Test results reported in patent US20240409647A1, “BISPECIFIC BINDING PROTEINS AGAINST ALARMINS AND USES THEREOF” (SINOMAB BIOSCIENCE LIMITED, priority 2022, published 2024).
These are yes or no findings as the source states them, for the method shown. Some results given as binding are weak or reduced against the parent protein; the word gives no strength.

Sequences of proteins named here, by UniProt entry; tags and fusion partners are left off. A change or cut given only in a name is not applied to a line headed by its entry. A line that says so, or that is headed by a name, gives the form on record, which may keep a tag or linker.
rhesus monkey IL-17RB protein (recombinant, R&D systems) (H9FWT9, form named): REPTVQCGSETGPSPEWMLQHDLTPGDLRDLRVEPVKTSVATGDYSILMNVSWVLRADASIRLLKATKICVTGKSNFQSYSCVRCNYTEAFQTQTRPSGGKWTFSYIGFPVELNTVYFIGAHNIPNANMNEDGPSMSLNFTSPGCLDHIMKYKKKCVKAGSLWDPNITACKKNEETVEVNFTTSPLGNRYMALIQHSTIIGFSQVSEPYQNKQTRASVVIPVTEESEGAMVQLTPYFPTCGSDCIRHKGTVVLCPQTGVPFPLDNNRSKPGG
full-length rhesus monkey IL-17RB expressed on HEK293 cells (H9FWT9, form named): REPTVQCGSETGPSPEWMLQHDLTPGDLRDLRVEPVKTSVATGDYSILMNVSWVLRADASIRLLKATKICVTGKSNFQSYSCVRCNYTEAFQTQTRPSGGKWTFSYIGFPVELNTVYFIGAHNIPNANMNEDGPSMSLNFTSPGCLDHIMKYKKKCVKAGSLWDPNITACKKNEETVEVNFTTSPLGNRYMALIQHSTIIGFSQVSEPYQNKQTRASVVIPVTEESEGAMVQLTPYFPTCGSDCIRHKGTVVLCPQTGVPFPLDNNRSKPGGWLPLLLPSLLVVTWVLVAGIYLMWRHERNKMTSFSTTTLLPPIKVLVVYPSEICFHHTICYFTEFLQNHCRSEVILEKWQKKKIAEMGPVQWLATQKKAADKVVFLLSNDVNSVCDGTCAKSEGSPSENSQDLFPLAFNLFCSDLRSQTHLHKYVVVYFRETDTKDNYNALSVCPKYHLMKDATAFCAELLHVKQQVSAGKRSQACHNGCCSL

Key:
[1] = biological target: rhesus monkey IL-17RB protein (recombinant, R&D systems) (rhesus monkey) (UniProt H9FWT9); assay: ELISA, coated IL-17RB
[2] = biological target: cynomolgus monkey IL-17RB protein (recombinant, R&D systems) (cynomolgus monkey); assay: ELISA, coated IL-17RB
[3] = biological target: full-length rhesus monkey IL-17RB expressed on HEK293 cells (rhesus monkey) (UniProt H9FWT9); assay: flow cytometry, transfected HEK293 cells

binding [1]: binds
binding [2]: binds
binding [3]: binds
B1: SM17 (antibody, human IgG4 S228P, kappa, V domains shown)
VH: QVQLVQSGAEVKKPGASVKVSCKASGYTFISYWMNWVRQAPGQGLEWMGRIDPYDSEIQYNQKFKDRVTMTRDTSISTAYMELSRLRSDDTAVYYCARSGGFDWFAYWGQGTLVTVSS
VL: DIQMTQSPSSLSASVGDRVTITCRASENINSNLAWYQQKPGKAPKLLLYDVTNLADGVPSRFSGSGSGTDYTLTISSLQPEDFATYYCQHFWGPPYTFGGGTKVEIKR
